Some results were stated once for a whole list of compounds, not compound by compound.
How the values were obtained:
Venturia inaequalis = assay: In vivo preventive test on Venturia inaequalis (apple scab); conditions: 10 ppm of active ingredient, evaluated 10 days after inoculation
Phakopsora pachyrhizi = assay: In vivo preventive test on Phakopsora pachyrhizi (soybean rust); conditions: 50 ppm of active ingredient, evaluated 11 days after inoculation
Experimental: Solvent: 28.5 parts by weight of acetone
Emulsifier: 1.5 parts by weight of polyoxyethylene alkyl phenyl ether
One day after spraying, the plants are inoculated with an aqueous spore suspension of the causal agent of soybean rust (Phakopsora pachyrhizi).
The test is evaluated 11 days after the inoculation.

Puccinia triticina = assay: In vivo curative test on Puccinia triticina (wheat); conditions: 500 ppm of active ingredient, evaluated 8 days after inoculation
Botrytis cinerea = assay: In vivo preventive test on Botrytis cinerea (beans); conditions: 100 ppm of active ingredient, evaluated 2 days after inoculation
Alternaria solani = assay: In vivo preventive test on Alternaria solani (tomato); conditions: 500 ppm of active ingredient, evaluated 7 days after inoculation
Leptosphaeria nodorum = assay: In vivo preventive test on Leptosphaeria nodorum (wheat); conditions: 500 ppm of active ingredient, evaluated 7-9 days after inoculation
Puccinia recondita = assay: In vivo preventive test on Puccinia recondita (wheat); conditions: 500 ppm of active ingredient, evaluated 7-9 days after inoculation
Pyrenophora teres = assay: In vivo preventive test on Pyrenophora teres (barley); conditions: 500 ppm of active ingredient, evaluated 7-9 days after inoculation
Sphaerotheca fuliginea = assay: In vivo preventive test on Sphaerotheca fuliginea (cucumber), Example L; conditions: 500 ppm of active ingredient, evaluated 7 days after inoculation

SMILES	disease control (Venturia inaequalis)	disease control (Phakopsora pachyrhizi)	disease control (Puccinia triticina)	disease control (Botrytis cinerea)	disease control (Alternaria solani)	disease control (Leptosphaeria nodorum)	disease control (Puccinia recondita)	disease control (Pyrenophora teres)	disease control (Sphaerotheca fuliginea)
Cc1nn(C)c(F)c1C(=O)N(Cc1c(Cl)cccc1C(F)(F)F)C1CC1 [N-[2-chloro-6-(trifluoromethyl)benzyl]-N-cyclopropyl-5-fluoro-1,3-dimethyl-1H-pyrazole-4-carboxamide, reference compound]	less than 30%	less than 50%	–	–	–	–	–	–	–
Cn1nc(C(F)F)c(C(=O)N(Cc2ncc(C(F)(F)F)cc2Cl)C2CC2)c1F [N-{[3-chloro-5-(trifluoromethyl)pyridin-2-yl]methyl}-N-cyclopropyl-3-(difluoromethyl)-5-fluoro-1-methyl-1H-pyrazole-4-carboxamide, reference compound]	–	–	less than 70%	–	–	–	–	–	–
Cn1nc(C(F)F)c(C(=O)N(Cc2cc(Cl)ccc2I)C2CC2)c1F [Example 23]	at least 70%	–	at least 95%	at least 90%	at least 70%	at least 70%	at least 70%	at least 70%	at least 70%
Cn1nc(C(F)F)c(C(=O)N(Cc2c(Cl)cccc2Br)C2CC2)c1F [Example 83]	at least 70%	–	at least 95%	at least 90%	at least 70%	at least 70%	at least 70%	at least 70%	at least 70%
Cn1nc(C(F)F)c(C(=O)N(Cc2ccccc2OC(F)(F)F)C2CC2)c1F [Example 105]	at least 70%	–	at least 95%	at least 90%	at least 70%	at least 70%	at least 70%	at least 70%	at least 70%
Cc1nn(C)c(F)c1C(=O)N(Cc1ccccc1I)C1CC1 [N-cyclopropyl-5-fluoro-N-(2-iodobenzyl)-1,3-dimethyl-1H-pyrazole-4-carboxamide, reference compound]	–	less than 50%	–	–	–	–	–	–	–
CC(c1ncc(C(F)(F)F)cc1Cl)N(C(=O)c1c(C(F)F)nn(C)c1F)C1CC1 (centres unmarked) [Example 90]	–	–	at least 95%	–	–	at least 70%	–	at least 70%	at least 70%
CCC(c1ccc(Cl)cc1Cl)N(C(=O)c1c(C(F)F)nn(C)c1F)C1CC1 (centres unmarked) [Example 69]	at least 70%	–	–	at least 90%	at least 70%	at least 70%	at least 70%	at least 70%	at least 70%
Cn1nc(C(F)F)c(C(=O)N(Cc2c(F)cccc2C(F)(F)F)C2CC2)c1F [Example 84]	at least 70%	–	at least 95%	–	–	at least 70%	at least 70%	at least 70%	at least 70%
CCCCc1cccc(F)c1CN(C(=O)c1c(C(F)F)nn(C)c1F)C1CC1 [Example 128]	at least 70%	–	–	at least 90%	at least 70%	at least 70%	at least 70%	at least 70%	at least 70%
Cn1nc(C(F)F)c(C(=O)N(Cc2c(Cl)cc(Cl)cc2Cl)C2CC2)c1F [Example 107]	at least 70%	–	–	at least 90%	at least 70%	at least 70%	at least 70%	at least 70%	at least 70%
CCc1ccccc1CN(C(=S)c1c(C(F)F)nn(C)c1F)C1CC1 [Example 133]	at least 70%	–	–	at least 90%	at least 70%	at least 70%	at least 70%	at least 70%	at least 70%
Cn1nc(C(F)F)c(C(=O)N(Cc2c(Cl)cccc2[Si](C)(C)C)C2CC2)c1F [Example 116]	at least 70%	–	–	at least 90%	at least 70%	at least 70%	at least 70%	at least 70%	at least 70%
Cc1cc(Br)c(CN(C(=O)c2c(C(F)F)nn(C)c2F)C2CC2)cc1F [Example 75]	at least 70%	–	–	at least 90%	at least 70%	at least 70%	at least 70%	at least 70%	at least 70%
CC(C)Cc1ccc(F)c(F)c1CN(C(=O)c1c(C(F)F)nn(C)c1F)C1CC1 [Example 112]	at least 70%	–	–	at least 90%	at least 70%	at least 70%	at least 70%	at least 70%	at least 70%
CC1CC1N(Cc1c(Cl)cccc1C(F)(F)F)C(=O)c1c(C(F)F)nn(C)c1F (centres unmarked) [Example 144]	at least 70%	–	–	at least 90%	at least 70%	at least 70%	at least 70%	at least 70%	at least 70%
CC(C)c1ccc(F)c(F)c1CN(C(=O)c1c(C(F)F)nn(C)c1F)C1CC1 [Example 136]	at least 70%	–	–	at least 90%	at least 70%	at least 70%	at least 70%	at least 70%	at least 70%
CCc1cccc(Cl)c1CN(C(=O)c1c(C(F)F)nn(C)c1F)C1CC1 [Example 124]	at least 70%	–	–	at least 90%	at least 70%	at least 70%	at least 70%	at least 70%	at least 70%
Cn1nc(C(F)F)c(C(=O)N(Cc2cc(F)ccc2C2CCCC2)C2CC2)c1F [Example 138]	at least 70%	–	–	at least 90%	at least 70%	at least 70%	at least 70%	at least 70%	at least 70%
Cn1nc(C(F)F)c(C(=O)N(Cc2ccccc2Oc2ccc(F)cc2)C2CC2)c1F [Example 110]	at least 70%	–	–	at least 90%	at least 70%	at least 70%	at least 70%	at least 70%	at least 70%
